Earlier results, collected in patent US20040152784A1, “Pharmaceutical composition and method for treatment of a urea cycle deficiency or sickle-cell anaemia” (Special Products Limited, priority 2002, published 2004).
At least one compound was matched to its structure with a doubt left.

Conditions: cited from earlier work

## OC[C@@H](O)[C@@H](O[C@H]1O[C@H](CO)[C@@H](O)[C@H](O)[C@H]1O)[C@H](O)[C@@H](O)CO [Maltitol]
  Acceptable Daily Intake: None
